Values of other authors in patent US20170049908A1 (priority 2015, published 2017).
Some results were stated once for a whole list of compounds, not compound by compound.

Test system: Na,K-ATPase
Settings: cited from earlier work

Row | SMILES | level that can cause death in patients
1 | C[C@H]1O[C@@H](O[C@H]2[C@@H](O)C[C@H](O[C@H]3[C@@H](O)C[C@H](O[C@H]4CC[C@@]5(C)[C@H](CC[C@@H]6[C@@H]5C[C@@H](O)[C@]5(C)[C@@H](C7=CC(=O)OC7)CC[C@]65O)C4)O[C@@H]3C)O[C@@H]2C)C[C@H](O)[C@@H]1O [digoxin] | 2-3 times the level approved for administration
2 | C[C@@H]1O[C@@H](O[C@@H]2C=C3CC[C@@H]4[C@H](CC[C@]5(C)[C@@H](c6ccc(=O)oc6)CC[C@]45O)[C@@]3(C)CC2)[C@H](O)[C@H](O)[C@H]1O [proscillaridin] | 2-3 times the level approved for administration
